Data source: PubChem BioAssay AID504744 (Drosophila RNAi Screening Center, 2011)

Purpose: 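Identify dsRNAs that increase or decrease phospho-dAkt after insulin treatment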 (primary screen)
Cell system: Drosophila Kc167 cells
Knock-down reagent: long dsRNA against Drosophila genes, 250 ng dsRNA per well of a 384-well plate
Duration: 3 days of knock-down, then overnight serum-free starvation before stimulation
Conditions: bovine insulin at 387 nM for 10 minutes after 12 h without serum
Read-out: 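Per-well phospho-dAkt level from an in-cell fluorescent antibody stain, divided by a DNA-dye signal; log2 residuals turned into z-scores that take cell number into account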
Call rule: 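Hit in the insulin screen when the two-replicate mean z-score is more extreme than plus or minus 2.5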
The screen tested about 23,000 reagents; below is an unselected part of those with a known target gene and a result. Over the whole deposit, 98 (0.43%) are marked active. 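Only hit calls are given; the phospho-dAkt signals, z-scores and hit direction were not deposited.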 Names joined by + are all predicted targets of the reagent.

no.	target	amplicon	Outcome
1	CG32320	DRSC21514	inactive
2	mTor	DRSC02811	active
3	Fibp	DRSC11031	inactive
4	APC4	DRSC18360	inactive
5	Scsalpha2	DRSC16003	inactive
6	Prx2	DRSC20256	inactive
7	PKD	DRSC16200	inactive
8	CG30273	DRSC22059	inactive
9	dgo	DRSC06134	inactive
10	CG33170	DRSC11854	inactive
11	CG33170	DRSC22366	inactive
12	run	DRSC20584	inactive
13	run	DRSC21515	inactive
14	CG9928	DRSC03274	inactive
15	Acsx1R	DRSC14339	inactive
16	CG13068	DRSC09951	inactive
17	Jhbp2	DRSC12292	inactive
18	CG14221	DRSC19578	inactive
19	Got2	DRSC00643	inactive
20	CG31407	DRSC12761	inactive
21	peg	DRSC15216	inactive
22	Roe1	DRSC07534	inactive
23	Rsph3	DRSC09696	inactive
24	Rsph3	DRSC10211	inactive
25	slou	DRSC17058	inactive
26	Ugt37A1	DRSC02114	inactive
27	Smyd5	DRSC15483	inactive
28	qtc	DRSC02364	inactive
29	qtc	DRSC02365	inactive
30	Klp64D	DRSC11204	inactive
31	CG4822	DRSC00669	inactive
32	sordd2 + sordd1	DRSC20136	inactive
33	CG32793	DRSC18145	inactive
34	CG32793	DRSC18194	inactive
35	PlexA	DRSC17220	inactive
36	Calx	DRSC13457	inactive
37	Calx	DRSC13459	inactive
38	Calx	DRSC16599	inactive
39	Calx	DRSC21850	inactive
40	Ada1-1 + Ada1-2	DRSC01220	inactive
41	Ada1-1 + Ada1-2	DRSC01222	inactive
42	CG13010	DRSC19529	inactive
43	CG32835 (retired record)	DRSC22693	inactive
44	app	DRSC09159	inactive
45	app	DRSC10246	inactive
46	app	DRSC10526	inactive
47	CG13995	DRSC00907	inactive
48	CG13995	DRSC02327	inactive
49	CG13995	DRSC22767	inactive
50	dpr1	DRSC05906	inactive
51	dpr1	DRSC06399	inactive
52	Pbp45	DRSC16509	inactive
53	CG30020	DRSC06252	inactive
54	CG30020	DRSC06730	inactive
55	CG33255 (retired record) + hpRNA:CR32205 + hpRNA:CR32207	DRSC09617	inactive
56	mor	DRSC15378	inactive
57	CG9578	DRSC20694	inactive
58	Mhc	DRSC03367	inactive
59	CG13198	DRSC06323	inactive
60	Cpr65Ec	DRSC11025	inactive
61	Sfxn1-3	DRSC12183	inactive
62	CG16779	DRSC15153	inactive
63	CG12990	DRSC19510	inactive
64	CG3632	DRSC19137	inactive
65	CG3632	DRSC19871	inactive

No new results follow: entries from further up.
no.	target	amplicon	Outcome
51	dpr1	DRSC06399	inactive
52	Pbp45	DRSC16509	inactive
53	CG30020	DRSC06252	inactive
54	CG30020	DRSC06730	inactive
55	CG33255 (retired record) + hpRNA:CR32205 + hpRNA:CR32207	DRSC09617	inactive
56	mor	DRSC15378	inactive
57	CG9578	DRSC20694	inactive
58	Mhc	DRSC03367	inactive
59	CG13198	DRSC06323	inactive
60	Cpr65Ec	DRSC11025	inactive
